No constants are given. Whether binding was seen depends on the method and setting. In cells and extracts the contact can be indirect. Some binding calls cover weakened binding; strength is not graded here.
Assays:
[1] = molecular target: cullin-5 (human (endogenous in HCT116 and DLD1)) (UniProt Q93034); assay: co-IP; lysates of HCT116 cells transfected with sh-PRDX1 or control, precipitated with anti-UBE2F or anti-CUL5 antibody, then Protein A + G Agarose; Western blot
[2] = molecular target: T1, PRDX1 (human (endogenous in HCT116 and DLD1)) (UniProt Q06830); assay: co-IP; HCT116 and DLD1 lysates (mild RIPA lysis buffer) precipitated with anti-PRDX1 or IgG control antibody overnight, then Protein A + G Agarose at 4 °C for 4 h; endogenous proteins detected by Western blot
T1 sequence: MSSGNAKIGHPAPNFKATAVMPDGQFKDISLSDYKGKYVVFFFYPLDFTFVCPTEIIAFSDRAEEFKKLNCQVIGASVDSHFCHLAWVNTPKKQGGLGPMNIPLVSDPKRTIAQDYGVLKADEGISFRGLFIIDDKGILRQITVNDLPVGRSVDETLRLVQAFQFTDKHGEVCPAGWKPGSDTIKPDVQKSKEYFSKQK

Protein sequences, listed by entry. Tags and fused reporters are not part of them.
UniProt Q93034: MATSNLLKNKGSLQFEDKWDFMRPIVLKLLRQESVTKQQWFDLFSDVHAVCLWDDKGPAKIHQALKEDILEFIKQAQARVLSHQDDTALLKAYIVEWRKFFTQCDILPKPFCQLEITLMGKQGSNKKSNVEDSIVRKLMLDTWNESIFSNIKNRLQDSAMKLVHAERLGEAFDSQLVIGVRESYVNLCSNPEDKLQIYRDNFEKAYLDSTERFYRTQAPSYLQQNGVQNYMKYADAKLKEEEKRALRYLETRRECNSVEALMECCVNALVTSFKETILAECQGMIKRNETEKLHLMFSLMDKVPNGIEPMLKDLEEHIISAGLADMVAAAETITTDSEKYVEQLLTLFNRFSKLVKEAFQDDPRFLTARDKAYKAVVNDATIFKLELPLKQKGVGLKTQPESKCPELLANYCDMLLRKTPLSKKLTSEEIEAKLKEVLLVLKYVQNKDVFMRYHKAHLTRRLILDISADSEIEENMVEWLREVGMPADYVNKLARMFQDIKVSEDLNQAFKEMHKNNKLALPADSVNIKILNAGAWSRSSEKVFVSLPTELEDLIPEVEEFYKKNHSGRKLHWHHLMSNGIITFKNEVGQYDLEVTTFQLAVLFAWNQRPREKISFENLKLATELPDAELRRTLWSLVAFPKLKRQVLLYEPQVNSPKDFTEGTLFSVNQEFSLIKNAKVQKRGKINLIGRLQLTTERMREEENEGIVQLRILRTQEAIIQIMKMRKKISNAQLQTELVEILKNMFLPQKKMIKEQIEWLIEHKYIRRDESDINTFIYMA

B1: Nedd8-conjugating enzyme UBE2F (enzyme, UniProt Q969M7 1-185)
chain: MLTLASKLKRDDGLKGSRTAATASDSTRRVSVRDKLLVKEVAELEANLPCTCKVHFPDPNKLHCFQLTVTPDEGYYQGGKFQFETEVPDAYNMVPPKVKCLTKIWHPNITETGEICLSLLREHSIDGTGWAPTRTLKDVVWGLNSLFTDLLNFDDPLNIEAAEHHLRDKEDFRNKVDDYIKRYAR
binding [1]: binds
binding [2]: binds
